Reference: patent publication US9669060B2, “Compositions for preventing and treating uterine disease” (CORNELL UNIVERSITY, priority 2009, dated 2017)
For at least one compound, name, drawing or mass did not settle the structure.

Tested on: Escherichia coli recovered from uterine secretion from Holstein dairy cows (n = 80 isolates)
Assay: Antimicrobial susceptibility assay, MIC by broth microdilution (CLSI)
Assay type: cell-based
Protocol: The MIC determinations were performed by broth microdilution method as described by the Clinical and Laboratory Standards Institute (CLSI, 2008) recommendations. […] The dilutions for each antimicrobial tested ranged from 0.25 μg/ml to 256 μg/ml for all the antibiotics and all tests were performed in duplicates. The cultures were diluted in Mueller-Hinton broth to 10^5 CFU/ml and an aliquot of 200 μl of the diluted culture was added to microtiter plate wells, containing various concentrations of the antimicrobials, to a total volume of 300 μl per well. The assays were carried out in duplicates and the required controls of adequacy of the broth to support the growth of the microorganism and the sterility of the broth done.
In addition to the uterine E. coli isolates tested, the reference strain of E. coli ATCC 25922 was included as quality control for MIC determination, as recommended by the CLSI (CLSI, 2008). The MIC that inhibits at least 50% (MIC50) and at least 90% (MIC90) of the isolates, as well as the minimum and maximum MIC, were also derived.

In the case of `CN(C)[C@@H]1C(O)=C(C(N)=O)C(=O)[C@@]2(O)C(O)=C3C(=O)c4c(O)cccc4[C@@](C)(O)[C@H]3C[C@@H]12` [Tetracycline, tetracycline], the “isolates resistant (CLSI criteria)” value is reported as “none of them were resistant”.
